Test results reported in PubChem BioAssay AID504467 (National Center for Advancing Translational Sciences (NCATS), 2011).
About 7,700 (2.3%) of roughly 330,000 compounds were called active. The shares of active, inactive and inconclusive entries below differ from those in the screen. Calls come from the whole dose curve; as a rule, active = well fitted inhibition curve with a large enough effect; inconclusive = small, poorly fitted or top-dose-only effect, or effect the other way; inactive = flat fitted curve, though single readings scatter. A potency beside an inconclusive call is a rough fit, not a confirmed value.

Assay: qHTS screen for small molecules that inhibit ELG1-dependent DNA repair in human embryonic kidney (HEK293T) cells expressing luciferase-tagged ELG1; note: nearly all actives have a fitted effect of over 55% in size
Conditions: HEK293T ELG1-luciferase reporter, luminescence, 16 h, DNA damage induced by 5-fluorouridine; activity change, negative = inhibition: at 46.1 µM (top of the series)
Procedure, shortened: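 DMSO vehicle served as the neutral condition. Each well held 2,000 cells given 5-fluorouridine plus compound; after 16 hr at 37 °C/5% CO2, ONE-Glo was added and luciferase measured 30 min later.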
% is set by controls: 0 for no effect and ±100 for the full control effect; potency is the fitted concentration of half-maximal effect.

Row | Compound | activity change, negative = inhibition | Potency
1 | O=C(O)c1cc(=O)[nH]c2c(Cl)cccc12 | inactive: -4.18% | 
2 | COc1ccc(N/N=C(\C#N)C(=O)NCCc2ccc(OC)c(OC)c2)cc1 | inactive: -23.2% | 
3 | CCSc1nc(N)c2c(C)c(C)sc2n1 |  | inconclusive: 20.6 µM [activator, partial curve]
4 | O=C(NCc1ccccn1)c1ccc(Cn2c(=S)[nH]c3ccccc3c2=O)cc1 |  | inconclusive: 18.3 µM [inhibitor, partial curve]
5 | CC(C)(C)OC(=O)NCC1CCC(C(=O)NC[C@H](CC(=O)O)c2ccc(Cl)cc2)CC1 (stereo partly drawn) | inactive: -3.24% | 
6 | COc1cc(CNc2ccc3[nH]c(=O)[nH]c3c2)ccc1OCc1ccc(C)cc1 |  | inconclusive: 23.1 µM [activator, partial curve, poor fit]
7 | COC(=O)c1[nH]c2c(c1C)C(=O)CC(c1ccc(OC)c(OC)c1)C2 (stereo not drawn) |  | inconclusive: 29.1 µM [inhibitor, partial curve, poor fit]
8 | CCc1ccc(NC(=O)COc2ccc3c(c2)OCO3)cc1 |  | inconclusive: 16.4 µM [activator, partial curve]
9 | CC(C)Oc1ccc(CNS(=O)(=O)c2csc(C(N)=O)c2)cc1 |  | inconclusive: 32.6 µM [inhibitor, partial curve, poor fit]
10 | Cn1c(CN2CCOCC2)nc2cc(NC(=O)c3ccc(F)cc3)ccc21 |  | inconclusive: 8.2 µM [inhibitor, single point]
11 | Cc1ccccc1OCC(O)Cn1c(NCc2ccccc2)nc2c1c(=O)[nH]c(=O)n2C (stereo not drawn) |  | inconclusive: 3.55 µM [inhibitor, single point]
12 | CCC(O)C1CCN(Cc2cn(Cc3ccccc3)nc2-c2cc3ccccc3o2)CC1 (stereo not drawn) |  | inconclusive: 20.6 µM [inhibitor, single point]
13 | CCOC(=O)/C(=C\c1ccc(OC(F)F)cc1)C1=Nn2c(nnc2-c2ccc(Cl)cc2)SC1 |  | active: 11.6 µM
14 | COc1cc(OC)cc(C(=O)Nc2ccc(N3CCOCC3)cc2N2CCOCC2)c1 | inactive: -17.1% | 
15 | COc1ccc(CC(=O)c2ccc(OC3OC(CO)C(O)C(O)C3O)cc2O)cc1 (stereo not drawn) |  | inconclusive: 14.6 µM [activator, partial curve]
16 | O=C(C1CCN(S(=O)(=O)c2ccccc2)CC1)N1CCC1 |  | inconclusive: 29.1 µM [activator, single point]
17 | COc1ccc(-c2oc(NC(=O)CSc3nncn3C)c(C#N)c2-c2ccc(OC)cc2)cc1 |  | active: 18.4 µM
18 | Cc1ccc(C)c(Nc2nc3ccc(C)cc3n3cnnc23)c1 | inactive: -11.9% | 
19 | CCOC(=O)c1c(CCl)nc2ccccc2c1-c1ccccc1 | inactive: -7.32% | 
20 | COc1ccc(/C=C/C(=O)Oc2ccc(/C=N/NC(=O)c3ccccc3)cc2)cc1OC |  | inconclusive: 16.4 µM [activator, partial curve]
21 | Cc1ccc2c(Cl)c(C)c(N3CCCC3)nc2n1 | inactive: -0.307% | 
22 | C/C(=N\NC(=O)Cn1ccc(C(F)(F)F)n1)c1ccco1 | inactive: 24.3% | 
23 | CC(=O)Nc1sc(C)c(C)c1CN1CCN(S(=O)(=O)c2ccccc2)CC1 |  | inconclusive: 32.6 µM [inhibitor, partial curve, poor fit]
24 | CC1CN(C(=S)NC(=O)C2CCCCC2)CC(C)O1 (stereo not drawn) | inactive: -1.01% | 

A draw from above in order of SMILES length, largest number first.
Row | Compound | activity change, negative = inhibition | Potency
2 | COc1ccc(N/N=C(\C#N)C(=O)NCCc2ccc(OC)c(OC)c2)cc1 | inactive: -23.2% | 
19 | CCOC(=O)c1c(CCl)nc2ccccc2c1-c1ccccc1 | inactive: -7.32% | 
1 | O=C(O)c1cc(=O)[nH]c2c(Cl)cccc12 | inactive: -4.18% | 

(next part)

Row | Compound | activity change, negative = inhibition | Potency
25 | CCN(C(=O)CN1C(=O)NC(c2ccccc2)(c2ccc(C)c(C)c2)C1=O)C1CCCCC1 (stereo not drawn) | inactive: -27.9% | 
26 | Cc1ccc(NC(=O)NN2CCOCC2)cc1 |  | inconclusive: 20.6 µM [activator, single point]
27 | O=C(CSc1nc2cccnc2n1Cc1ccccc1)NC1CCCCC1 |  | inconclusive: 32.6 µM [inhibitor, single point]
28 | N#C/C(=C/c1cn[nH]c1-c1ccc(Br)cc1)C(=O)O | inactive: 3.05% | 
29 | O=c1c2[nH]c3ccc(F)cc3c2ncn1CCC1=CCCCC1 |  | inconclusive: 5.8 µM [activator, partial curve]
30 | COc1ccc(NC(=O)CCOc2ccccc2F)cc1S(=O)(=O)N1CCCCC1 |  | active: 23.1 µM
31 | CCOc1ccc(S(=O)(=O)NCCC(=O)NCC(c2ccc(F)cc2)N2CCOCC2)cc1 (stereo not drawn) |  | inconclusive: 0.092 µM [inhibitor, partial curve, poor fit]
32 | Cn1c(SCC(=O)NNC(=O)Cc2ccccc2)nnc1-c1ccc(Cl)cc1 | inactive: 14.5% | 
33 | Fc1ccc(NCc2n[nH]c(=S)n2Cc2ccccc2)cc1 | inactive: -26.2% | 
34 | NS(=O)(=O)c1cccc(NC(=O)c2cccs2)c1 | inactive: -4.19% | 
35 | O=C1OC/C(=C(/O)c2ccc(Cl)cc2)C1=O | inactive: -0.298% | 
36 | O=C(NCCCN1CCOCC1)c1ccc2c(c1)N(Cc1cccc(Cl)c1)C(=O)c1ccccc1S2=O (stereo not drawn) |  | inconclusive: 29.1 µM [activator, partial curve, poor fit]
37 | Cc1noc2ncnc(Sc3c(Cl)cccc3Cl)c12 |  | inconclusive: 10.3 µM [activator, partial curve, poor fit]
38 | CC(=O)Nc1ccc(N2CCc3c(C)c(C#N)c4nc5ccccc5n4c32)cc1 |  | inconclusive: 1.3 µM [inhibitor, single point]
39 | COc1cc(OC)c(C2=NOC(C(=O)O)C2)cc1Cl (stereo not drawn) | inactive: 0.637% | 
40 | NS(=O)(=O)c1ccc(CNC(=O)c2cc(=O)[nH]c3ccccc23)cc1 | inactive: 27% | 
41 | NC(=O)c1ccsc1NC(=O)c1ccc(S(=O)(=O)N2CCCc3ccccc32)cc1 |  | active: 20.6 µM
42 | CCOc1cc(N2CCOCC2)c(OCC)cc1NC(=O)CN1CCSC1=O | inactive: 7.79% | 
43 | CCOC(=O)c1ccc(NC(=O)C(=O)NCC2(c3ccc(OC)cc3)CCOCC2)cc1 |  | inconclusive: 6.51 µM [inhibitor, partial curve, poor fit]
44 | CN(C)/C(CN1CCN(C=O)CC1)=C1\N=C(c2ccccc2)OC1=O | inactive: 13% | 
45 | CC(OC(=O)c1cnc2ccccc2n1)c1ccccc1Cl (stereo not drawn) |  | inconclusive: 29.1 µM [activator, single point]
46 | COc1ccc(C(C(=O)NCc2ccccc2)N(C(=O)c2snc(C(N)=O)c2N)c2ccccc2OC)cc1 (stereo not drawn) |  | active: 18.3 µM
47 | CCc1noc(C)c1C(=O)Nc1cccc2ncccc12 | inactive: 1.67% | 
48 | CCc1ccc(C(O)(c2ccccc2OC)C(CN2CCOCC2)c2ccccc2)cc1 (stereo not drawn) |  | inconclusive: 23.1 µM [inhibitor, single point]
